# Data published in the supplement of paper PMC8728848.
# This is one part of the list.
# How the values were obtained:
# Assay in all cases: glycan array binding signal (z-score within array); higher = stronger binding
# Details in all cases: glycan notation: IUPAC condensed, linker removed
# Gal(b1-3)GlcNAc6S = biological target: Gal(b1-3)GlcNAc6S
# How it was run: (§1)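 Columns mapping to the same glycan were averaged after glycan names were converted to IUPAC-condensed notation. The data come from 3228 arrays in the Consortium for Functional Glycomics database, limited to those with an available protein sequence. Binding is reported as a within-array Z-score averaged across arrays of one protein sequence and across linkers.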
# [1] = biological target: Gal(b1-3)[Fuc(a1-4)]GlcNAc
# How it was run: as §1
# [2] = biological target: Gal(b1-3)[Fuc(a1-4)]GlcNAc(b1-2)Man
# How it was run: as §1
# [3] = biological target: Gal(b1-3)[Fuc(a1-4)]GlcNAc(b1-2)Man(a1-3)[Gal(b1-3)[Fuc(a1-4)]GlcNAc(b1-2)Man(a1-6)]Man(b1-4)GlcNAc(b1-4)[Fuc(a1-6)]GlcNAc
# How it was run: as §1
# [4] = biological target: Gal(b1-3)[Fuc(a1-4)]GlcNAc(b1-3)Gal(b1-3)[Fuc(a1-4)]GlcNAc
# How it was run: as §1
# [5] = biological target: Gal(b1-3)[Fuc(a1-4)]GlcNAc(b1-3)Gal(b1-4)[Fuc(a1-3)]GlcNAc
# How it was run: as §1
# [6] = biological target: Gal(b1-3)[Fuc(a1-4)]GlcNAc(b1-6)GalNAc
# How it was run: as §1
# [7] = biological target: Gal(b1-3)[GlcNAc(b1-6)]GalNAc
# How it was run: as §1
# [8] = biological target: Gal(b1-3)[Neu5Ac(a2-6)]GalNAc
# How it was run: as §1
# [9] = biological target: Gal(b1-3)[Neu5Ac(b2-6)]GalNAc
# How it was run: as §1
# Gal(b1-4)Gal = biological target: Gal(b1-4)Gal
# How it was run: as §1
# [10] = biological target: Gal(b1-4)GalNAc(a1-3)[Fuc(a1-2)]Gal(b1-4)GlcNAc
# How it was run: as §1
# [11] = biological target: Gal(b1-4)GalNAc(b1-3)[Fuc(a1-2)]Gal(b1-4)GlcNAc
# How it was run: as §1
# Gal(b1-4)Glc = biological target: Gal(b1-4)Glc
# How it was run: as §1
# Gal(b1-4)Glc6S = biological target: Gal(b1-4)Glc6S
# How it was run: as §1
# Gal(b1-4)GlcNAc = biological target: Gal(b1-4)GlcNAc
# How it was run: as §1
# [12] = biological target: Gal(b1-4)GlcNAc(a1-6)Gal(b1-4)GlcNAc
# How it was run: as §1
# Gal(b1-4)GlcNAc(b1-2)Man = biological target: Gal(b1-4)GlcNAc(b1-2)Man
# How it was run: as §1
# [13] = biological target: Gal(b1-4)GlcNAc(b1-2)Man(a1-3)Man(b1-4)GlcNAc(b1-4)GlcNAc
# How it was run: as §1
# [14] = biological target: Gal(b1-4)GlcNAc(b1-2)Man(a1-3)[Gal(b1-4)GlcNAc(b1-2)Man(a1-6)]Man(b1-4)GlcNAc(b1-4)GlcNAc
# How it was run: as §1
# [15] = biological target: Gal(b1-4)GlcNAc(b1-2)Man(a1-3)[Gal(b1-4)GlcNAc(b1-2)Man(a1-6)]Man(b1-4)GlcNAc(b1-4)[Fuc(a1-6)]GlcNAc
# How it was run: as §1
# [16] = biological target: Gal(b1-4)GlcNAc(b1-2)Man(a1-3)[Gal(b1-4)GlcNAc(b1-2)Man(a1-6)][Gal(b1-4)GlcNAc(b1-4)]Man(b1-4)GlcNAc(b1-4)[Fuc(a1-6)]GlcNAc
# How it was run: as §1
# [17] = biological target: Gal(b1-4)GlcNAc(b1-2)Man(a1-3)[Gal(b1-4)GlcNAc(b1-2)Man(a1-6)][GlcNAc(b1-4)]Man(b1-4)GlcNAc(b1-4)[Fuc(a1-6)]GlcNAc
# How it was run: as §1
# [18] = biological target: Gal(b1-4)GlcNAc(b1-2)Man(a1-3)[GlcNAc(b1-2)Man(a1-6)]Man(b1-4)GlcNAc(b1-4)GlcNAc
# How it was run: as §1
# [19] = biological target: Gal(b1-4)GlcNAc(b1-2)Man(a1-3)[GlcNAc(b1-4)][Gal(b1-4)GlcNAc(b1-2)Man(a1-6)]Man(b1-4)GlcNAc(b1-4)GlcNAc
# How it was run: as §1
# [20] = biological target: Gal(b1-4)GlcNAc(b1-2)Man(a1-3)[Man(a1-6)]Man(b1-4)GlcNAc(b1-4)GlcNAc
# How it was run: as §1
# [21] = biological target: Gal(b1-4)GlcNAc(b1-2)Man(a1-6)Man(b1-4)GlcNAc(b1-4)GlcNAc
# How it was run: as §1
# [22] = biological target: Gal(b1-4)GlcNAc(b1-2)Man(a1-6)[GlcNAc(b1-2)Man(a1-3)]Man(b1-4)GlcNAc(b1-4)GlcNAc
# How it was run: as §1
# [23] = biological target: Gal(b1-4)GlcNAc(b1-2)[Gal(b1-4)GlcNAc(b1-4)]Man(a1-3)[Gal(b1-4)GlcNAc(b1-2)Man(a1-6)]Man(b1-4)GlcNAc(b1-4)GlcNAc
# How it was run: as §1
# [24] = biological target: Gal(b1-4)GlcNAc(b1-2)[Gal(b1-4)GlcNAc(b1-4)]Man(a1-3)[Gal(b1-4)GlcNAc(b1-2)[Gal(b1-4)GlcNAc(b1-6)]Man(a1-6)]Man(b1-4)GlcNAc(b1-4)GlcNAc
# How it was run: as §1
# [25] = biological target: Gal(b1-4)GlcNAc(b1-2)[Gal(b1-4)GlcNAc(b1-4)]Man(a1-3)[GlcNAc(b1-4)][Gal(b1-4)GlcNAc(b1-2)Man(a1-6)]Man(b1-4)GlcNAc(b1-4)GlcNAc
# How it was run: as §1
# [26] = biological target: Gal(b1-4)GlcNAc(b1-2)[Gal(b1-4)GlcNAc(b1-4)]Man(a1-3)[GlcNAc(b1-4)][Gal(b1-4)GlcNAc(b1-2)[Gal(b1-4)GlcNAc(b1-6)]Man(a1-6)]Man(b1-4)GlcNAc(b1-4)GlcNAc
# How it was run: as §1
# [27] = biological target: Gal(b1-4)GlcNAc(b1-2)[Gal(b1-4)GlcNAc(b1-6)]Man(a1-6)[Gal(b1-4)GlcNAc(b1-2)Man(a1-3)]Man(b1-4)GlcNAc(b1-4)GlcNAc
# How it was run: as §1
# [28] = biological target: Gal(b1-4)GlcNAc(b1-2)[Gal(b1-4)GlcNAc(b1-6)]Man(a1-6)[GlcNAc(b1-4)][Gal(b1-4)GlcNAc(b1-2)Man(a1-3)]Man(b1-4)GlcNAc(b1-4)GlcNAc
# How it was run: as §1
# [29] = biological target: Gal(b1-4)GlcNAc(b1-2)[Gal(b1-4)GlcNAc(b1-6)]Man(a1-6)[GlcNAc(b1-4)][Gal(b1-4)GlcNAc(b1-2)[Gal(b1-4)GlcNAc(b1-4)]Man(a1-3)]Man(b1-4)GlcNAc(b1-4)[Fuc(a1-6)]GlcNAc
# How it was run: as §1
# [30] = biological target: Gal(b1-4)GlcNAc(b1-3)Gal(b1-3)GalNAc
# How it was run: as §1
# [31] = biological target: Gal(b1-4)GlcNAc(b1-3)Gal(b1-3)GlcNAc
# How it was run: as §1
# [32] = biological target: Gal(b1-4)GlcNAc(b1-3)Gal(b1-4)GlcNAc
# How it was run: as §1
# [33] = biological target: Gal(b1-4)GlcNAc(b1-3)Gal(b1-4)GlcNAc(b1-2)Man(a1-3)[Gal(b1-4)GlcNAc(b1-3)Gal(b1-4)GlcNAc(b1-2)Man(a1-6)]Man(b1-4)GlcNAc(b1-4)GlcNAc
# How it was run: as §1
# [34] = biological target: Gal(b1-4)GlcNAc(b1-3)Gal(b1-4)GlcNAc(b1-2)Man(a1-3)[Gal(b1-4)GlcNAc(b1-3)Gal(b1-4)GlcNAc(b1-2)Man(a1-6)]Man(b1-4)GlcNAc(b1-4)[Fuc(a1-6)]GlcNAc
# How it was run: as §1
# [35] = biological target: Gal(b1-4)GlcNAc(b1-3)Gal(b1-4)GlcNAc(b1-3)Gal(b1-4)GlcNAc
# How it was run: as §1
# [36] = biological target: Gal(b1-4)GlcNAc(b1-3)Gal(b1-4)GlcNAc(b1-3)Gal(b1-4)GlcNAc(b1-2)Man(a1-3)[Gal(b1-4)GlcNAc(b1-3)Gal(b1-4)GlcNAc(b1-3)Gal(b1-4)GlcNAc(b1-2)Man(a1-6)]Man(b1-4)GlcNAc(b1-4)[Fuc(a1-6)]GlcNAc
# How it was run: as §1
# [37] = biological target: Gal(b1-4)GlcNAc(b1-3)Gal(b1-4)GlcNAc(b1-3)Gal(b1-4)GlcNAc(b1-2)[Gal(b1-4)GlcNAc(b1-3)Gal(b1-4)GlcNAc(b1-3)Gal(b1-4)GlcNAc(b1-6)]Man(a1-6)[Gal(b1-4)GlcNAc(b1-3)Gal(b1-4)GlcNAc(b1-3)Gal(b1-4)GlcNAc(b1-2)Man(a1-3)]Man(b1-4)GlcNAc(b1-4)[Fuc(a1-6)]GlcNAc
# How it was run: as §1
# [38] = biological target: Gal(b1-4)GlcNAc(b1-3)Gal(b1-4)GlcNAc(b1-3)Gal(b1-4)GlcNAc(b1-3)Gal(b1-4)GlcNAc(b1-2)Man(a1-3)[Gal(b1-4)GlcNAc(b1-3)Gal(b1-4)GlcNAc(b1-3)Gal(b1-4)GlcNAc(b1-3)Gal(b1-4)GlcNAc(b1-2)Man(a1-6)]Man(b1-4)GlcNAc(b1-4)GlcNAc
# How it was run: as §1
# [39] = biological target: Gal(b1-4)GlcNAc(b1-3)Gal(b1-4)GlcNAc(b1-3)Gal(b1-4)GlcNAc(b1-3)Gal(b1-4)GlcNAc(b1-2)Man(a1-3)[Gal(b1-4)GlcNAc(b1-3)Gal(b1-4)GlcNAc(b1-3)Gal(b1-4)GlcNAc(b1-3)Gal(b1-4)GlcNAc(b1-2)Man(a1-6)]Man(b1-4)GlcNAc(b1-4)[Fuc(a1-6)]GlcNAc
# How it was run: as §1
binder,measurement,setting,value
PX14351B-bth-512-36-512 (Bacteroides thetaiotaomicron) (protein) ASETQQWKTLEDTRSALMGVYGLTRAALADNNTHWICGDLRKGDFTVYKRSDLQAVSDNELNKPYDLLKKVSNWRRFYAVINAASVFMEKAPRTVELDRSYSEQNLKYDIAQVRALRAFAYFYMVRIWGDVPLVTYSYDNGTFPSMPRTDAQTVLSYAKAELLTAIEDLPYQYGTQTNLYYGSYGAQWQGKLFNKLSAYSVLAHICAWQGNYAEAETYSAFIIDHASEINAKYTSIADLTSETGLFYSNASVKGSRILGFNFAHNDNEATQSGHLEQLTLAYPLVQKSYPEIYISKDSLFSIFTNFDDLRFGIIDTIKYSSYYVQNLNEETPVFSKIKIIQDGSAKDNDFGVFGSSIVFTRLEDITLLRAEALCALNRSTEAVSYLNMIRTNRGLREVSFKKDFGNNRESLIAEIFEERRRELMGEGWRWYDLVRRQKLMKDNEAFLRLISSGGIYWPVSEDIITANSQIEQNEFWK,glycan array binding signal (z-score),Gal(b1-3)GlcNAc6S,-0.41
same,glycan array binding signal (z-score),[1],-0.255
same,glycan array binding signal (z-score),[2],-0.138
same,glycan array binding signal (z-score),[3],-0.16
same,glycan array binding signal (z-score),[4],-0.183
same,glycan array binding signal (z-score),[5],-0.248
same,glycan array binding signal (z-score),[6],-0.29
same,glycan array binding signal (z-score),[7],0.726
same,glycan array binding signal (z-score),[8],-0.247
same,glycan array binding signal (z-score),[9],-0.332
same,glycan array binding signal (z-score),Gal(b1-4)Gal,-0.272
same,glycan array binding signal (z-score),[10],-0.157
same,glycan array binding signal (z-score),[11],1.32
same,glycan array binding signal (z-score),Gal(b1-4)Glc,-0.09
same,glycan array binding signal (z-score),Gal(b1-4)Glc6S,0.199
same,glycan array binding signal (z-score),Gal(b1-4)GlcNAc,-0.269
same,glycan array binding signal (z-score),[12],-0.231
same,glycan array binding signal (z-score),Gal(b1-4)GlcNAc(b1-2)Man,-0.19
same,glycan array binding signal (z-score),[13],0.101
same,glycan array binding signal (z-score),[14],-0.03
same,glycan array binding signal (z-score),[15],-0.139
same,glycan array binding signal (z-score),[16],-0.038
same,glycan array binding signal (z-score),[17],-0.433
same,glycan array binding signal (z-score),[18],0.077
same,glycan array binding signal (z-score),[19],-0.229
same,glycan array binding signal (z-score),[20],-0.226
same,glycan array binding signal (z-score),[21],-0.081
same,glycan array binding signal (z-score),[22],-0.359
same,glycan array binding signal (z-score),[23],-0.187
same,glycan array binding signal (z-score),[24],-0.164
same,glycan array binding signal (z-score),[25],-0.05
same,glycan array binding signal (z-score),[26],-0.163
same,glycan array binding signal (z-score),[27],0.041
same,glycan array binding signal (z-score),[28],-0.255
same,glycan array binding signal (z-score),[29],-0.15
same,glycan array binding signal (z-score),[30],0.062
same,glycan array binding signal (z-score),[31],-0.057
same,glycan array binding signal (z-score),[32],-0.088
same,glycan array binding signal (z-score),[33],0.337
same,glycan array binding signal (z-score),[34],0.225
same,glycan array binding signal (z-score),[35],-0.314
same,glycan array binding signal (z-score),[36],0.027
same,glycan array binding signal (z-score),[37],0.121
same,glycan array binding signal (z-score),[38],0.455
same,glycan array binding signal (z-score),[39],0.547
